Results on 107 sequences are retold here after PubChem BioAssay AID1508600 (Functional Genomics Laboratory (NCATS/FGL), 2020).

Screen size: about 53,000 sequences; about 3,700 (7%) were called active.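 Rule for the calls: active = gene knockdowns whose robust z-score for IL-1 alpha signal is at least 2 or at most -2, so actives lie on both sides; inactive = the rest.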 The list shows a part of the results.

The assay is described as follows: Components of the Cytosolic LPS Sensing Pathway: Gene Identification via Genome-wide siRNA Screen.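 Note: robust z of the log signal after scaling to non-targeting control siRNA wells of the plate.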 Conditions: RAW264.7 macrophages, IL-1a HTRF, actives lie on both sides, screened at 100 nM (by protocol), cells primed 5 h with Pam3CSK4 first. In outline: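 Supernatant IL-1a by HTRF from RAW264.7 cells primed with Pam3CSK4 (5 hours) and transfected with LipidA (24 hour) after 48h siRNA knockdown at 100 nM; cell viability checked with CellTiter-Glo.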
For GCGGCAUUGUCUACAUCCATT against Emp3, the z-score was inactive: 0.209.
With GCCGCAUUGAGUACAUGGUTT against Ap1m1, the z-score was inactive: 1.9.
Consider GGAACUCCAUCUUCUGUAATT against Olfr1491, for which the z-score was inactive: -1.06.
As to GCCAACUUAUGUUGUACGCTT against Tmem101, the z-score is inactive: 1.29.
Turning to GGGCCUAGACCGUAUCUUCTT against Kcnj12, the z-score was inactive: 0.0859.
With GGACAAACCUUGGAAGAUUTT against Ccdc166 the figure was inactive: -0.24; with CCGAUUAAAAGAGUGUUUGTT against Nudt8, inactive: 1.85; with GGGUAUGACCGGUAUUACATT against Atp5j2, inactive: 0.213.
In the case of GGUCAAGACACAGUUUAACTT against Tgif2lx1, the z-score is inactive: 0.474.
For GCUUAAGAGAUUCAAAUUGTT against Olfr1317, the z-score was inactive: 0.036.
On to GGCCAGUACGAAUGCUCCUTT against Dlk1, for which the z-score is inactive: -0.524.
With GCCAAGAGGACUUACUCUCTT against Marchf3 the figure was inactive: 1.85; with GGGAAACAGACUUUUUUUATT against Arid3a, inactive: 0.953; with GGAUGUUCAGCAAUCCCUGTT against Rnf121, inactive: -0.851.
For CCCAUUUAGACUAGUUUAATT against Hsf2 the value was inactive: 2; for GGGAAUGUCUGACUUCCAGTT against Gtf3c5, inactive: 1.59.
Consider GGCUUCUUCUUCCUUUUUATT against Sra1, for which the z-score was inactive: -0.848.
GGGCUUCAUAAUCACCUUCTT against Rad51c: the z-score is inactive: -0.998.
Regarding GGCAUGGAAGGCUUUAAUUTT against Gad1, the z-score is inactive: -0.697.
Take “GGAGGCUUAUCCUAAAAAGTT against 6330444E15Rik”: the z-score was inactive: -1.02.
As for GGAAGAAUGAAGAAGUAAUTT against Cacng3, the z-score was inactive: 1.35.
As to GGAGGAAGAAAUAAAUUACTT against Iyd, the z-score was inactive: 0.642.
On to GCGGGACUCAAACAAAAGUTT against Trip4, for which the z-score was inactive: 0.295.
In the case of CCAUUUAAGUGUGUGUUAATT against Rbmx, the z-score was inactive: 0.475.
For GGAAUUUGCUACGAAUCUCTT against Ppfia3, the z-score is inactive: -0.722.
For GGCCAUUAUUCGUGAGUUGTT against Armc10 the value was active: 2.11; for GCAAGUAUUAAGUAUGACGTT against Vps13c, inactive: 0.15; for GCAUUUGUGUAACCACAAATT against Pde4dip, inactive: -0.522.
For GGAAAAAAGACAUAAGUCATT against Vmn2r37 the value was inactive: -1.47; for CCAUCAAUUGGAAAUCUUUTT against Tnn, inactive: -1.01.
Take GGUACUUUAAUGCUGAGGATT against Wdr74: the z-score was inactive: -1.62.
With GGAAGUGAUCCUUAAAAGATT against Ebf1, the z-score is inactive: -0.207.
As to GGAAAUGUGUCCUUGACCATT against Timd2, the z-score is inactive: -0.128.
With GGCACAUGAUCCUUAAUUUTT against Pfkfb3 the figure was inactive: 0.0397; with GCUUCAUAACACAAACGGATT against Zfp184, inactive: 0.295.
In the case of CCCUCAUUGUAACCUUAACTT against Olfr792, the z-score was active: -2.27.
With GGAGAUCAGUCCUACAAAGTT against Ralbp1, the z-score was inactive: 1.44.
GGUGGUAUUCUGUGGACCATT against Mrpl48: the z-score is inactive: -0.819.
For the sequence CGGCACCAGUUACAAAGUGTT against Cpa2, the z-score is inactive: -0.239.
In the case of GCAAACUGCCCUCUUUGUGTT against Olfr1024, the z-score was active: 2.54.
GGUGGUGUUUCUGAACCCATT against Capn5: the z-score was inactive: -0.882.
For “GGUGGAUGGAUCACUGAGUTT against B230325K18Rik”, the z-score was inactive: -0.347.
As for CCUUAUCCAAGAGUAGGGCTT against Xkr4, the z-score was inactive: 0.714.
GGACCUUGGCUUUAAGAUGTT against Matn1: the z-score is inactive: -0.261.
For GCCUAAAUUCACAUGGCAGTT against Eef1akmt1 the value was inactive: 1.32.
As to GGUCUUCGCCACAUGGAAATT against Crkl, the z-score was inactive: 0.436.
On to GGGACUUUAAAAAAGACUCTT against Olfr1366, for which the z-score was active: 2.1.
For CCUUUAGCCCUCAAUAUUCTT against Macrod2, the z-score was inactive: 0.642.
CCGACUGUUAAAGUGGUGUTT against Arih1: the z-score is inactive: 0.608.
Take “GGAAAUGCUACUGCUUGGATT against 1700030K09Rik”: the z-score was inactive: 1.2.
Regarding GCUGAUACACAGACAUACCTT against Erh, the z-score is inactive: -0.356.
Turning to GGGACUAAUGUUUUGCCUATT against Krt16, the z-score is active: -2.62.
Turning to GCUGGAAACCCGUAUACUATT against Krt23, the z-score was active: 2.16.
Take GGCUGGGUAAAACCCAUCATT against Idh1: the z-score was inactive: -0.207.
As for GGUAGACAACUGGAUAAAUTT against Gpnmb, the z-score is inactive: -0.445.
With GAUCUGGUAUGUUUGUGACTT against Olfr1414, the z-score is inactive: -1.14.
GGGCAAGAAAUCAAGGUUUTT against Krtap3-2: the z-score is inactive: 0.249.
On to GGCUCUAACAGCUACAUGUTT against Hspb7, for which the z-score was active: -2.21.
Turning to CGAACUUGGUUUAAGCAAUTT against Gstcd, the z-score was inactive: -0.453.
On to GGACAGUUGUCAUUGGCAUTT against Daglb, for which the z-score is inactive: -1.21.
On to GGUACACUUUGUGCCUGGCTT against Iars2, for which the z-score was inactive: -0.615.
As to GGACGUGAGCUCCAUCAUUTT against Sypl2, the z-score was inactive: 1.32.
With GGACAAUUGCCUUUUGACATT against Thbs3 the figure was inactive: 0.146.
In the case of GAAUCAUGAUAGAAUGCAUTT against AI987944, the z-score was inactive: -0.135.
On to CGUCAAGCGAGGAAACUCUTT against Pifo, for which the z-score is inactive: -1.54.
As for GGACCAAAAGGAAAAUCCATT against Kcnj6, the z-score is inactive: -1.05.
Regarding CCAGUCCUACUUAGCAAAGTT against Lrrc75a, the z-score was inactive: -1.48.
For the sequence CCAGUCAUCAUGCUACACGTT against Slc19a3, the z-score is inactive: 0.473.
With CCUUGUCCUAUGUUAGGCATT against Ccdc85a the figure was inactive: 0.401; with GGCUUUGAGCAUGUUUUCATT against Hspb7, active: 7.14.
For CCUAUUGAAUUGACCCUAATT against Muc20 the value was inactive: 0.236.
With GAACCCAGAUCUGCACAACTT against Sox17 the figure was inactive: 1.51; with GUUGGUAGAUUCAGUUUUCTT against Vmn1r89, inactive: 1.88; with GGUCCUUAGGUGACCUCCUTT against Lrrc20, inactive: -0.249.
For the sequence GGAUAUCGUUGUUUCUGAGTT against Lmbr1, the z-score was inactive: -1.
For GGGCAUAAAAUCAUUGCCUTT against Tigd4 the value was inactive: -1.43; for GCAAAACGAUGACUCGGAGTT against Lhx4, inactive: 0.755; for GGUGGAGAUUGUUUGUAAATT against Lratd1, inactive: 1.56.
GCAAGUGCCUAGAGUCUCATT against Crat: the z-score is inactive: -0.291.
For GGAAGUCUCUUAGACUACCTT against Fbxo36 the value was inactive: 1.11; for GCAGCGAUGUACAAUCCAATT against Opn5, inactive: 0.816; for GGUGAUUGAGUUGGAGAGGTT against Nkx3-1, inactive: -0.743.
GCAUGAUCCAGCUUUCUAGTT against Bard1: the z-score was inactive: -1.24.
Take GCACGUAUACUAAAAUUGGTT against Rnf225: the z-score is inactive: -1.21.
In the case of GGUUCAGUCAGUCAGUAUCTT against Srst, the z-score was inactive: -1.47.
Regarding GGAUGAAGAUACGAUUGAUTT against Sumo2, the z-score was inactive: -0.0166.
With CGGGACAUUAGUCAUUAAATT against Pcdha5 the figure was inactive: -0.78; with GGCGAUCUUUGGAAUUAGATT against Ing3, inactive: 0.209; with GGAAAAAUAGCAUACCGAATT against Bphl, inactive: 0.172.
Regarding GGAAUCUGAAUUUUUGUGUTT against Commd1, the z-score is inactive: -0.576.
On to GCUUAGAAAUGUGAUCCAUTT against Rex2, for which the z-score is inactive: -0.388.
As to GCCGAAGAGAUCAACACCATT against Onecut3, the z-score is inactive: 1.92.
With GGUCUACAUUGAUCCUUUUTT against Ephb4 the figure was inactive: -1.22.
For GGGUUAAAGCGGUUUACUUTT against Kcng3 the value was active: 2.72; for GCAUGACAUAUAGUACAAUTT against Teddm1b, inactive: -0.402.
In the case of GCUGAAAACUGCUUGCUCCTT against Onecut3, the z-score is inactive: 1.18.
As for CGUAUUCAACCUUCAUAGATT against Cabcoco1, the z-score is inactive: -0.145.
Turning to GUUUGAUGUCUGUCUAACATT against Olfr608, the z-score was inactive: -0.104.
GUCAGAUGAUUCUAUUCUCTT against Rps21: the z-score is inactive: 0.0243.
With GGGAAAACAGCCCUUUCAUTT against Slc12a7 the figure was inactive: -1.38; with CCUCAUGGCCAAUUUGCACTT against Plekhg5, inactive: -0.713; with GCGAGGUGUCUCUAUCAACTT against Mrpl11, active: 3.37.
In the case of GGCUCAUUGUAGCAAAUUATT against Wdr44, the z-score is inactive: -0.452.
Take GGUUAAGGAAUAGUAACUCTT against Ehbp1l1: the z-score is inactive: 0.931.
As for GGACAAAGAUAAAGAAGAUTT against Lsp1, the z-score was inactive: -0.738.
For GGCUCUAUGAGUCUACCUATT against Cdx1 the value was inactive: 0.547; for GAGGGUGUGCAUUCUUCUATT against Olfr1242, inactive: -0.766.
